Experimental data reported in paper PMC11538284.
These are yes or no findings as the source states them, for the method shown. Binding seen in cells or lysates may run through a third protein. Some binding calls cover weakened binding; strength is not graded here. For some assays here: Sequences can lack the tags named with a protein.

Chains of the proteins cited; added tags and fusions are not shown. Lines headed by an entry give the natural chain unless they say otherwise; changes in a name come on top.
UniProt O60264: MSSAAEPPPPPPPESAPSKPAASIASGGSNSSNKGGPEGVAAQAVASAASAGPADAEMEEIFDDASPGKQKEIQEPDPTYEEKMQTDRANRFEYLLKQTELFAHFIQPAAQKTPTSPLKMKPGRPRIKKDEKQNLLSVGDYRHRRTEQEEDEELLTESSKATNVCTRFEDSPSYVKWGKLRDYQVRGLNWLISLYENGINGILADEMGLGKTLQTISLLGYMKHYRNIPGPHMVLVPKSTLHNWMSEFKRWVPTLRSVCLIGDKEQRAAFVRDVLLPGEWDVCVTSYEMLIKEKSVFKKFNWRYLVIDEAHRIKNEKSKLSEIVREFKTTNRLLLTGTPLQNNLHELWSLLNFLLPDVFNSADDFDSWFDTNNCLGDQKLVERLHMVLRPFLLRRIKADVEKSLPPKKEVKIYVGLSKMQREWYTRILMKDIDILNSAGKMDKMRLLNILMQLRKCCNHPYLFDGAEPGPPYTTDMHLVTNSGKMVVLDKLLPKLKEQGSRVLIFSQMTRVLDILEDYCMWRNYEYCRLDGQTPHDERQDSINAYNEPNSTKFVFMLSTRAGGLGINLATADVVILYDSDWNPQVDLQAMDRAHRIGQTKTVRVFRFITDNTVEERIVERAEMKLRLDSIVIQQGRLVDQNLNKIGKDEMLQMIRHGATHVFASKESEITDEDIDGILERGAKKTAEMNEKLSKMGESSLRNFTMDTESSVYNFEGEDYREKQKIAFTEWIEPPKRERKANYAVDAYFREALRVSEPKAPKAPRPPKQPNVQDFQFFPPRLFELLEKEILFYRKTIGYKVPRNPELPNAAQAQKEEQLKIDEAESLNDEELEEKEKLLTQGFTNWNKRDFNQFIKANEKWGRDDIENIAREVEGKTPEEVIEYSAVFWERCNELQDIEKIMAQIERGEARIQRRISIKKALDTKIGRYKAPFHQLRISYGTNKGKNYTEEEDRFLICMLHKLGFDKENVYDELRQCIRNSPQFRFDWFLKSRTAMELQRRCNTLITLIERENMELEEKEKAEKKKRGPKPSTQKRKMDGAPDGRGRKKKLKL

Columns and labels:
[1] = target: T1, Flag-tagged full-length USP3 (in HEK293T cells) (UniProt Q9Y6I4); assay: co-IP; HEK293T cells co-transfected with HA- and Flag-tagged constructs, cell lysates subjected to IP and detected with the indicated antibodies
T1 sequence: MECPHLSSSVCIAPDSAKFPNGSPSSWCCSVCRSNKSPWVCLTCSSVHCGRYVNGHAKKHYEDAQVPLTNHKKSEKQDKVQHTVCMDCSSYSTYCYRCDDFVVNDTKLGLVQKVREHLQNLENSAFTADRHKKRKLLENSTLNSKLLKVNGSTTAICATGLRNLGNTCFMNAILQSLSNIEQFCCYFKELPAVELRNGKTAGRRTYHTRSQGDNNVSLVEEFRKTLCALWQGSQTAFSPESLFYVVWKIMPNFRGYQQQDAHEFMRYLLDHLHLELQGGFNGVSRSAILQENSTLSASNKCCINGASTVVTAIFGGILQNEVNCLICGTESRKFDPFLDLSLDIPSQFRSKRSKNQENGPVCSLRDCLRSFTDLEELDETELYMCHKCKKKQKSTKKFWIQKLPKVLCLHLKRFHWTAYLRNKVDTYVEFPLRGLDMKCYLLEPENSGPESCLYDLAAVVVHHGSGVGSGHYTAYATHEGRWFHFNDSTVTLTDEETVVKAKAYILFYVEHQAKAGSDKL

[2] = target: T2, Flag-tagged USP3 (in PC3 cells) (UniProt Q9Y6I4); assay: co-IP; Flag-tagged USP3 or HA-tagged SMARCA5 expressed in PC3 cells, endogenous partner detected
T2 sequence: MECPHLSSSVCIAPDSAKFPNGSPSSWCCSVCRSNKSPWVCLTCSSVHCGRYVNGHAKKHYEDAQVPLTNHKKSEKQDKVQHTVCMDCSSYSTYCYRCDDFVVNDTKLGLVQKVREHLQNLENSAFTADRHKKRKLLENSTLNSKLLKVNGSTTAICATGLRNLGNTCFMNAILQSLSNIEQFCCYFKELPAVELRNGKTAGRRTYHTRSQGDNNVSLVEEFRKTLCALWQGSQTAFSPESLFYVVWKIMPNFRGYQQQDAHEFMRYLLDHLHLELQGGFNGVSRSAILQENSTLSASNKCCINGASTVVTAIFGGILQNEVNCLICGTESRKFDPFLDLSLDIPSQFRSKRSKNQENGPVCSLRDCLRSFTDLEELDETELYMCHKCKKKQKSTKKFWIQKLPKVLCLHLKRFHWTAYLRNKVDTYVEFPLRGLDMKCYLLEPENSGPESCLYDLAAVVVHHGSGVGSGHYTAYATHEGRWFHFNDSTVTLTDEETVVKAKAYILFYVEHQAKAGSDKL

[3] = target: T3, Ubiquitin-specific protease 3 (USP3), endogenous (human (endogenous in PC3)) (UniProt Q9Y6I4); assay: co-IP; endogenous USP3 and SMARCA5 in PC3 cells
T3 sequence: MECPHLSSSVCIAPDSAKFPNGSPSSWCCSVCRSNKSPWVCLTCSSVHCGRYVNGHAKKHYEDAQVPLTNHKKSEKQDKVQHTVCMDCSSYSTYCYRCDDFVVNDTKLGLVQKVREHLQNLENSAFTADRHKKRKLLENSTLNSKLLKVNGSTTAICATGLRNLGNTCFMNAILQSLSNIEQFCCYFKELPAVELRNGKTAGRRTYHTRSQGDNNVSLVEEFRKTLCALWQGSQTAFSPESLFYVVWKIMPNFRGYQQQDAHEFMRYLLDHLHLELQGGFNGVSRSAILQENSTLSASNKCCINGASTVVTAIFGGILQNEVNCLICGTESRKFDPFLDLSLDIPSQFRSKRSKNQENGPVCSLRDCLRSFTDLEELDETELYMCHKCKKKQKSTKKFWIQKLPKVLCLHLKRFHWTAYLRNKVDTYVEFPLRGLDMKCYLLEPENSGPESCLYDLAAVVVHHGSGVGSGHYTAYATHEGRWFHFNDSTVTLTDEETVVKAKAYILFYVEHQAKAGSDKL

[4] = target: HA-tagged SMARCA5 (in PC3 cells) (UniProt O60264); assay: co-IP; Flag-tagged USP3 or HA-tagged SMARCA5 expressed in PC3 cells, endogenous partner detected
[5] = target: HA-tagged full-length SMARCA5 (in HEK293T cells) (UniProt O60264); assay: co-IP; HEK293T cells co-transfected with HA- and Flag-tagged constructs, cell lysates subjected to IP and detected with the indicated antibodies

“HA-tagged SMARCA5 deletion mutant (487-638), Helicase C-terminal (from UniProt O60264 487-638) (domain or fragment)” was tested, and the binding [1] was “binds”.

“SMARCA5, SWI/SNF-related matrix-associated actin-dependent regulator of chromatin subfamily A member 5, endogenous (from UniProt O60264 1-1052) (enzyme)” was tested, and the binding [2] was “binds” and the binding [3] was “binds”.

B1: Ubiquitin-specific protease 3 (USP3), endogenous (enzyme, UniProt Q9Y6I4 1-520)
chain: MECPHLSSSVCIAPDSAKFPNGSPSSWCCSVCRSNKSPWVCLTCSSVHCGRYVNGHAKKHYEDAQVPLTNHKKSEKQDKVQHTVCMDCSSYSTYCYRCDDFVVNDTKLGLVQKVREHLQNLENSAFTADRHKKRKLLENSTLNSKLLKVNGSTTAICATGLRNLGNTCFMNAILQSLSNIEQFCCYFKELPAVELRNGKTAGRRTYHTRSQGDNNVSLVEEFRKTLCALWQGSQTAFSPESLFYVVWKIMPNFRGYQQQDAHEFMRYLLDHLHLELQGGFNGVSRSAILQENSTLSASNKCCINGASTVVTAIFGGILQNEVNCLICGTESRKFDPFLDLSLDIPSQFRSKRSKNQENGPVCSLRDCLRSFTDLEELDETELYMCHKCKKKQKSTKKFWIQKLPKVLCLHLKRFHWTAYLRNKVDTYVEFPLRGLDMKCYLLEPENSGPESCLYDLAAVVVHHGSGVGSGHYTAYATHEGRWFHFNDSTVTLTDEETVVKAKAYILFYVEHQAKAGSDKL
With B1 the binding [4] was “binds”.

B2: Flag-tagged USP3 UCH domain (deletion mutant) (domain or fragment, UniProt Q9Y6I4 159-520)
chain: TGLRNLGNTCFMNAILQSLSNIEQFCCYFKELPAVELRNGKTAGRRTYHTRSQGDNNVSLVEEFRKTLCALWQGSQTAFSPESLFYVVWKIMPNFRGYQQQDAHEFMRYLLDHLHLELQGGFNGVSRSAILQENSTLSASNKCCINGASTVVTAIFGGILQNEVNCLICGTESRKFDPFLDLSLDIPSQFRSKRSKNQENGPVCSLRDCLRSFTDLEELDETELYMCHKCKKKQKSTKKFWIQKLPKVLCLHLKRFHWTAYLRNKVDTYVEFPLRGLDMKCYLLEPENSGPESCLYDLAAVVVHHGSGVGSGHYTAYATHEGRWFHFNDSTVTLTDEETVVKAKAYILFYVEHQAKAGSDKL
B2 was tested, and the binding [5] was “binds”.
